Data published in article PMC11005171, “Molecular cloning, characterisation and molecular modelling of two novel T-synthases from mollusc origin” (Glycobiology, 2024).

Key:
Pc_T-synthase = tested on: T1, Pc_T-synthase; test: HPLC galactosyl transfer assay, inhibition; assay type: biochemical, Pomacea canaliculata; conditions: 5 nmol inhibitor in 20 uL standard assay: MES pH 6.5, 20 mM MnCl2, 200 uM UDP-Gal, 1 mM pNP-α-GalNAc, 37 °C; Sf9 lysate
T1 construct: gene T-synthase; full-length 373 aa (CDS 1,122 bp), C-terminal His tag, codon-optimised, expressed in Sf9 cells (baculovirus), clear cell lysate

Cg2_T-synthase = tested on: T2, Cg2_T-synthase; test: HPLC galactosyl transfer assay, inhibition; assay type: biochemical, Magallana gigas; conditions: 5 nmol inhibitor in 20 uL standard assay: MES pH 6.5, 20 mM MnCl2, 200 uM UDP-Gal, 1 mM pNP-α-GalNAc, 37 °C; Sf9 lysate
T2 construct: gene T-synthase; full-length 421 aa (CDS 1,266 bp), C-terminal His tag, codon-optimised, expressed in Sf9 cells (baculovirus), clear cell lysate

SMILES	% inhibition with 5 nmols (Pc_T-synthase)	% inhibition with 5 nmols (Cg2_T-synthase)
OC[C@H]1OC(O)[C@H](O)[C@@H](O)[C@H]1O (stereo partly shown) [galactose]	13%	–
O=c1ccn([C@@H]2O[C@H](COP(=O)(O)O)[C@@H](O)[C@H]2O)c(=O)[nH]1 [UMP]	30%	23%
Nc1nc2c(ncn2[C@@H]2O[C@H](COP(=O)(O)OP(=O)(O)O)[C@@H](O)[C@H]2O)c(=O)[nH]1 [GDP]	25%	–
O=c1ccn([C@@H]2O[C@H](COP(=O)(O)OP(=O)(O)OP(=O)(O)O)[C@@H](O)[C@H]2O)c(=O)[nH]1 [UTP]	75%	16%
O=c1ccn([C@@H]2O[C@H](COP(=O)(O)OP(=O)(O)O)[C@@H](O)[C@H]2O)c(=O)[nH]1 [UDP]	–	31%
